Data reported in patent publication US20210161918A1, “TIGECYCLINE FOR TOPICAL TREATMENT OF ROOT CANAL SPACE” (THE UNIVERSITY OF NORTH CAROLINA AT CHAPEL HILL, priority 2018, published 2021).
For some of these results: At least one compound was matched to its structure with a doubt left. Some entries share one result that the patent states for a list of compounds.

Experiments:
[1] = test system: polymicrobial biofilm of E. faecalis, S. intermedius, F. nucleatum and P. gingivalis in root canals; experiment: Post-treatment CFUs in ex vivo root canals inoculated with bacterial mixture (3-week biofilm), dressed with antibiotics/hydrogel scaffolds; type: cell-based; details: vs control group
From the text: One hundred and twenty intact single rooted permanent human teeth were collected for the study. All teeth were autoclaved, then access cavities were prepeared and the canal instrumented to size 40/0.04, with saline irrigation. Teeth were autoclaved again to ensure absence of bacteria prior to bacterial inoculation. The root canals were then inoculated with the bacterial mixture, using syringe delivery, with the 30-gauge needle close to the working length. Access cavities were then sealed with a sterile sponge and Cavit (3M ESPE). All teeth were then incubated in the anaerobic chamber. The suspensions were replenished weekly for 3 weeks to allow for biofilm formation and maturation (14).

[2] = test system: Enterococcus faecalis (ATCC 4083), Streptococcus intermedius (ATCC 31412), Fusobacterium nucleatum (ATCC 49256), Porphyromonas gingivalis (ATCC 33277); experiment: MIC and MBC by E-test; type: cell-based; details: comparison among tested antibiotics, P<0.05
Method: Four common endodontic pathogens were selected for the study: Enterococcus faecalis (ATCC 4083), Streptococcus intermedius (ATCC 31412), Fusobacterium nucleatum (ATCC 49256), and Porphyromonas gingivalis (ATCC 33277). […] Then, each microorganism was cultured in their recommended broth as follow; brain heart infusion (BHI) broth for […], Todd Hewitt broth for S. intermedius, chopped meat for F. nucleatum, and tryptic soy broth supplemented with hemin and vitamin K for P. gingivalis. […] One-way analysis of variance (ANOVA), followed by the Tukey's HSD (with p<0.05) was used for the four microorganisms to compare: A) the MICs and MBCs among tested antibiotics, B) the difference between baseline CFUs and post-treatment CFUs for different antibiotics/scaffold formulations and, C) the changes in color among the groups.

Row | Compound | log reduction of CFUs ([1]; 0.1 mg/mL) | log reduction of CFUs ([1]; 1 mg/mL) | Minimum Bactericidal Concentration (MBC) [2] | Minimum Inhibitory Concentration (MIC) [2]
1 | CN(C)c1cc(NC(=O)CNC(C)(C)C)c(O)c2c1C[C@H]1C[C@H]3[C@H](N(C)C)C(O)=C(C(N)=O)C(=O)[C@@]3(O)C(O)=C1C2=O [Tigecycline] | 3-4 folds log | 6-7 folds log |  | 
2 | CN(C)c1ccc(O)c2c1C[C@H]1C[C@H]3[C@H](N(C)C)C(O)=C(C(N)=O)C(=O)[C@@]3(O)C(O)=C1C2=O [minocycline] |  |  | significantly lower | significantly lower
